Measured values as given in PubChem BioAssay AID2685 (National Center for Advancing Translational Sciences (NCATS), 2010).
Some of the results follow. The main result of the screen is listed elsewhere. These columns were measured beside it and carry no call. Compounds called inactive in the main read-out are mostly missing here. Potencies come from curve fits of mixed quality, noted in brackets.

Test: qHTS Assay for Lipid Storage Modulators in Drosophila S3 Cells;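 for cell number change: cells counted by Cell Tracker Red CMTPX staining in the red channel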
Settings: BODIPY lipid droplet fluorescence, 18-24 h; for cell number change: measured here: cell count max response, cells fed with added oleic acid
Method in brief: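 Drosophila S3 cells loaded with oleic acid (400 uM, as added) and compounds at several concentrations; lipid droplets imaged by 488-nm laser-scanning cytometry, 500–530 nm intensity and object ratio to cell channel. Percent activity normalized to 20 uM Triacsin C.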

[1] = measured here: cell number channel AC50, cells fed with added oleic acid
[2] = measured here: lipid fluorescence (Fed channel) AC50, cells fed with added oleic acid

| SMILES | cell number change [%] | AC50 [1] | AC50 [2] |
| --- | --- | --- | --- |
| CC1(C)C2CCC1(CS(=O)(=O)N1CCCc3ccccc31)C(=O)C2 (centres undefined) | -7.71 | 0.164 µM [falling, full curve, poor fit] |  |
| O=C(CN1CCOCC1)Nc1ccc(C2CCCCC2)cc1 | -30.8 | 29.1 µM [falling, single point] |  |
| CC1CCc2c(sc(NC(=O)c3ccc(-c4ccccc4[N+](=O)[O-])o3)c2C#N)C1 (centres undefined) | 22.2 |  |  |
| CN(C)C(=O)NC1c2ccccc2-c2ccccc21 | 20.6 |  | 6.51 µM [rising, full curve] |
| CCOc1ccc(Nc2nc(Cc3nnc(SCC(=O)c4ccc(C)c(C)c4)o3)cs2)cc1 | -23.9 |  | 2.91 µM [rising, single point] |
| CCc1ccc(N2CC(C(=O)N3CCN(c4ccccn4)CC3)CC2=O)cc1 (centres undefined) | 3.95 |  |  |
| COc1ccc(CNC(=O)CN(c2ccc(OC)cc2)S(=O)(=O)c2c(C)[nH]c(=O)[nH]c2=O)cc1 | 23.6 | 0.58 µM [rising, full curve, poor fit] | 3.26 µM [falling, full curve, poor fit] |
| O=c1[nH]cc(C(F)(F)F)cc1NS(=O)(=O)c1ccc([N+](=O)[O-])cc1 | 72.6 | 29.1 µM [rising, single point] |  |
| COc1ccccc1N1CCN(C(=O)c2cc3c(C)nc4ccccc4c3o2)CC1 | -35.9 | 8.2 µM [falling, partial curve, poor fit] | 2.59 µM [falling, partial curve] |
| Cc1ccc(-n2c(-c3ccco3)nc3c(cnn3-c3ccc(C)cc3)c2=O)cc1 | -15.3 |  | 0.00461 µM [falling, full curve, poor fit] |
| CC1(C)CC(NC(=O)C23CCC(C)(C(=O)C2)C3(C)C)CC(C)(C)N1 (centres undefined) | -8.26 |  | 0.103 µM [falling, full curve] |
| O=C(/C=C/c1cccnc1)c1cccc(O)c1 | 40.8 | 29.1 µM [rising, single point] | 35.5 µM [rising, single point] |
| CC(OC(=O)c1ccc2c(=O)n3c(nc2c1)CCCCC3)C(=O)Nc1ncc(Cl)cc1Cl (centres undefined) | -14.8 |  |  |
| C=CCN1C(=Nc2ccccc2)SC/C1=C\C(=O)OC | -1.69 |  | 20.6 µM [rising, single point] |
| FC(F)(F)c1nnc2c(Sc3ccccn3)nc3ccccc3n12 | 18 |  |  |
| O=C(c1sc2ccccc2c1Cl)N1CCN(c2ccccn2)CC1 | 30.3 |  | 0.501 µM [rising, single point] |
| CCS(=O)(=O)c1cc([N+](=O)[O-])c(Sc2ccccc2NC(C)=O)s1 | -30.6 | 29.1 µM [falling, single point] | 29.1 µM [falling, single point] |
